No constants are given. Whether binding was seen depends on the method and setting. Binding seen in cells or lysates may run through a third protein. Some results given as binding are weak or reduced against the parent protein; the word gives no strength.
Columns and labels:
Assay in all cases: cross-linking; isobaric quantitative PIR cross-linker GG-BDP-NHP (10 mM) added to minced heart tissue of 5 TAC and 5 sham-operated mice in 170 mM Na2HPO4 pH 8.0, 30 min, room temperature; mitochondria then isolated, digested, cross-linked peptides enriched on avidin and identified by LC-MS/MS; links mapped on PDB 6j5k
[1] = molecular target: FoF1-ATP synthase α subunit (ATPA) (mouse (endogenous in mouse heart)) (UniProt Q03265)
[2] = molecular target: FoF1-ATP synthase β subunit (ATPB) (mouse (endogenous in mouse heart)) (UniProt P56480)
[3] = molecular target: ATPase inhibitory factor 1 (ATPIF1) (mouse (endogenous in mouse heart)) (UniProt O35143)

Chains of the proteins cited; added tags and fusions are not shown. Residues count along the entry.
UniProt Q03265, residues 44-553: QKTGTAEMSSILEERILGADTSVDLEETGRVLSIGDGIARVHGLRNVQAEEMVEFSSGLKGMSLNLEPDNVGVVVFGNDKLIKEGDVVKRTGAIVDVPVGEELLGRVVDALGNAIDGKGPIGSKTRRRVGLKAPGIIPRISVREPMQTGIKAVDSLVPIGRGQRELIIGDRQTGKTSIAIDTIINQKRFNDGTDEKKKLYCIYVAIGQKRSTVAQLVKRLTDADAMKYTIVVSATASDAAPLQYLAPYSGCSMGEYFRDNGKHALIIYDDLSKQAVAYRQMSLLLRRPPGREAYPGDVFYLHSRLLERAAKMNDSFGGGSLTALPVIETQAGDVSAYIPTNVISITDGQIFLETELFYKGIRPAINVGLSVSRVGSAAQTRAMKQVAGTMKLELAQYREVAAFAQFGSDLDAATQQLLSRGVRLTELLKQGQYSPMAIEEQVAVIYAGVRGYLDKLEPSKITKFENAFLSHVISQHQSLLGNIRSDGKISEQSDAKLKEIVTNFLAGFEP
UniProt P56480, residues 47-529: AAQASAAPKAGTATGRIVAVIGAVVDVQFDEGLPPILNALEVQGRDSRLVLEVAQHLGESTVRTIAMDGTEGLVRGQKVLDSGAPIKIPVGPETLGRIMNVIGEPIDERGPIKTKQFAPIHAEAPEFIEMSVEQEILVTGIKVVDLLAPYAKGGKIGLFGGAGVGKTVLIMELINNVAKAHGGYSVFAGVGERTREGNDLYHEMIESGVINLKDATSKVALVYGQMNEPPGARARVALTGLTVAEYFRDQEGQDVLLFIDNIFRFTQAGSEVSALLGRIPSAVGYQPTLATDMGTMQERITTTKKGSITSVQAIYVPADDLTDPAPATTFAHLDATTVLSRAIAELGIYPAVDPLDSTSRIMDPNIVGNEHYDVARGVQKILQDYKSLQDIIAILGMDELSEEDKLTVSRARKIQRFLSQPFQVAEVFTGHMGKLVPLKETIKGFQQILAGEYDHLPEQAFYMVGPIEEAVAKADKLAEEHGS

Measured: binding

B1: ATPase inhibitory factor 1 (ATPIF1) (protein, UniProt O35143 26-106)
chain: VSDSSDSMDTGAGSIREAGGAFGKREKAEEDRYFREKTKEQLAALRKHHEDEIDHHSKEIERLQKQIERHKKKIQQLKNNH
binds: all assays above
